Measurements: the supplement of paper PMC4683952
Where a name gives a salt, the structure may show the parent alone. Screen size: about 1,200 compounds; about 50 (4%) showed activity. No stated cut-off is given here; in the data, all actives reach 1.3 or more but so do some inactives. The list shows a part of the results.

These compounds were tested on Lgr5 (MarsCy1-Lgr5-EGFP, U2OS) (assay: cell-surface Lgr5 expression (SCi1 fluorescence, background-subtracted) relative to WT DMSO (fold of DMSO control); higher = more Lgr5 at the plasma membrane, active = hit call of the paper). Details: U2OS MarsCy1-Lgr5-EGFP stable; treatment time: overnight; 16 µM; library: Johns Hopkins Clinical Compound Library.

Compound | cell-surface Lgr5 expression
NC(=O)N/N=C/c1ccc([N+](=O)[O-])o1 [Nitrofurazone (5-Nitro-2-Furaldehyde Semicarbazone)] | inactive: 1.1
CN(C)CCC[C@@]1(c2ccc(F)cc2)OCc2cc(C#N)ccc21 [Escitalopram oxalate] | inactive: 0.627
FC(F)(F)C(F)(F)C(F)(F)C(F)(F)C(F)(F)C(F)(F)C(F)(F)C(F)(F)Br [Perflubron (Perfluorooctyl bromide)] | inactive: 0.824
CN1CCCC(n2nc(Cc3ccc(Cl)cc3)c3ccccc3c2=O)CC1 (centres undefined) [Azelastine HCl] | inactive: 1.03
C1CNCCN1 [Piperazine] | inactive: 1.21
Nc1cc(C(Cl)=C(Cl)Cl)c(S(N)(=O)=O)cc1S(N)(=O)=O [Clorsulon] | inactive: 1.12
COc1ccc(CCN(C)CCCC(C#N)(c2cc(OC)c(OC)c(OC)c2)C(C)C)cc1OC (centres undefined) [Gallopamil (methoxyverapamil)] | inactive: 1.27
CN1CCN(c2c(F)cc3c(=O)c(C(=O)O)cn(CCF)c3c2F)CC1 [Fleroxacin] | inactive: 1.11
NNc1nncc2ccccc12 [Hydralazine] | inactive: 0.924
CC(=O)OCC(CCn1cnc2cnc(N)nc21)COC(C)=O [Famciclovir] | inactive: 0.923
[Br-].[Br-].[Ca+2] [Calcium bromide] | inactive: 0.565
CN1CCN(CCCN2c3ccccc3Sc3ccc(Cl)cc32)CC1 [Prochlorperazine dimaleate salt] | inactive: 1.01
CN1CCN(CCCN2c3ccccc3Sc3ccc(Cl)cc32)CC1 [Prochlorperazine dimaleate] | inactive: 0.945
CC(=O)[C@]1(O)Cc2c(O)c3c(c(O)c2[C@@H](O[C@H]2C[C@H](N)[C@H](O)[C@H](C)O2)C1)C(=O)c1ccccc1C3=O [Idarubicin] | inactive: 0.619
CCN(CC)CCc1nc(-c2ccccc2)no1 [Oxolamine] | inactive: 1.17
CNCC(O)c1ccc(OC(=O)C(C)(C)C)c(OC(=O)C(C)(C)C)c1 (centres undefined) [Dipivefrin HCl] | active: 1.42
CCCCCC[C@@H](O)C/C=C\CCCCCCCC(=O)O [Potassium ricinoleate] | inactive: 1.24
Cc1c(N(C)CS(=O)(=O)O)c(=O)n(-c2ccccc2)n1C [Dipyrone] | inactive: 1.18
CN(C)[C@@H]1C(O)=C(C(=O)NCN2CCCC2)C(=O)[C@@]2(O)C(O)=C3C(=O)c4c(O)cccc4[C@@](C)(O)[C@H]3C[C@@H]12 [Rolitetracycline] | inactive: 0.735
CC(NCCC(c1ccccc1)c1ccccc1)c1ccccc1 (centres undefined) [Fendiline (3,3-Diphenyl-N-1-propanamine)] | inactive: 0.941

An excerpt of these results, tab-delimited:
Compound	cell-surface Lgr5 expression
COc1ccc(CCN(C)CCCC(C#N)(c2cc(OC)c(OC)c(OC)c2)C(C)C)cc1OC (centres undefined) [Gallopamil (methoxyverapamil)]	inactive: 1.27
CN1CCN(c2c(F)cc3c(=O)c(C(=O)O)cn(CCF)c3c2F)CC1 [Fleroxacin]	inactive: 1.11
NNc1nncc2ccccc12 [Hydralazine]	inactive: 0.924
CC(=O)OCC(CCn1cnc2cnc(N)nc21)COC(C)=O [Famciclovir]	inactive: 0.923
[Br-].[Br-].[Ca+2] [Calcium bromide]	inactive: 0.565
CN1CCN(CCCN2c3ccccc3Sc3ccc(Cl)cc32)CC1 [Prochlorperazine dimaleate salt]	inactive: 1.01
CN1CCN(CCCN2c3ccccc3Sc3ccc(Cl)cc32)CC1 [Prochlorperazine dimaleate]	inactive: 0.945

Going on with the list:

Compound | cell-surface Lgr5 expression
O=c1[nH]c(=O)n(C2CCCO2)cc1F (centres undefined) [Tegafur (Ftorafur)] | inactive: 1.14
N=C(N)NCCCC[C@@H]1NC(=O)CCSSC[C@@H](C(N)=O)NC(=O)[C@@H]2CCCN2C(=O)[C@H](Cc2c[nH]c3ccccc23)NC(=O)[C@H](CC(=O)O)NC(=O)CNC1=O [Eptifibatide] | inactive: 0.905
O=C(O)c1cc(-c2ccccc2)nc2ccccc12 [Cinchophen (2-phenyl 4-quinoline carboxylic acid)] | active: 1.45
CC(=O)O[C@]1(C(C)=O)CC[C@H]2[C@@H]3C[C@H](C)C4=CC(=O)CC[C@]4(C)[C@H]3CC[C@@]21C [Medroxyprogesterone acetate] | inactive: 1.2
C[C@H]1C[C@@H]2[C@H]([C@@H](O)C[C@@]3(C)[C@H]2CC[C@]3(O)C(=O)CO)[C@@]2(C)C=CC(=O)C=C12 [Methylprednisolone (6-alpha-Methylprednisolone)] | inactive: 1.12
CCCNCC(O)COc1ccccc1C(=O)CCc1ccccc1 (centres undefined) [Propafenone] | inactive: 1.27
COc1ccccc1OCC(O)CN1CCN(CC(=O)Nc2c(C)cccc2C)CC1 (centres undefined) [Ranolazine dihydrochloride] | inactive: 1.15
N.O=C(O)CC(O)(CC(=O)O)C(=O)O [Ammonium citrate (Ammonium hydrogencitrate)] | inactive: 1.14
CCCCCCCCCCCC[N+](C)(C)Cc1ccccc1 | inactive: 0.391
COc1ccc(C2CNC(=O)C2)cc1OC1CCCC1 (centres undefined) [Rolipram] | inactive: 1.03
O=C([O-])C[NH+](CC(=O)[O-])CC(=O)[O-].O=C([O-])C[NH+](CC(=O)[O-])CC(=O)[O-].O=C([O-])C[NH+](CC(=O)[O-])CC(=O)[O-].[Na+].[Na+].[Na+].[Na+].[Na+].[Na+].[Na+].[O]=[Bi][O]C(=O)C[NH+](CC(=O)[O-])CC(=O)[O-] [Bismuth Sodium Triglycollamate (Nitrilotriacetic acid)] | inactive: 1.08
Cc1ccc(C(C)C)cc1O [Carvacrol] | inactive: 1.25
CCOC(=O)Oc1c(OC)cc(C(=O)O[C@@H]2C[C@@H]3CN4CCc5c([nH]c6cc(OC)ccc56)[C@H]4C[C@@H]3[C@H](C(=O)OC)[C@H]2OC)cc1OC [Syrosingopine] | inactive: 0.732
CO/N=C(\C(=O)N[C@@H]1C(=O)N2C(C(=O)O)=C(COC(N)=O)CS[C@H]12)c1ccco1 [Cefuroxime] | inactive: 0.981
Nc1ccc(S(=O)(=O)Nc2ccnn2-c2ccccc2)cc1 [Sulfaphenazole] | inactive: 0.81
CC1Cc2ccccc2N1NC(=O)c1ccc(Cl)c(S(N)(=O)=O)c1 (centres undefined) [Indapamide] | inactive: 0.929
CC(C)(C)[C@]1(O)CCN2C[C@H]3c4ccccc4CCc4cccc(c43)[C@@H]2C1 [Butaclamol hydrochloride (+)] | inactive: 1.08
Nc1ccc2cc3ccc(N)cc3nc2c1 [Proflavine hemisulfate salt hydrate, powder] | inactive: 1.06
CC(=O)N1C[C@H](O)C[C@H]1C(=O)O [Oxaceprol (trans-1-acetyl-4-hydroxy L-proline)] | inactive: 1.16
